According to PubChem BioAssay AID2685 (National Center for Advancing Translational Sciences (NCATS), 2010):
The list shows a part of the results. Shown are side measurements of this screen, not its main read-out; they come without a call. The list favours compounds with an active or inconclusive main result. Words in brackets tell the shape of the fitted curve; partial curves, single points and poor fits give uncertain potencies.

Experiment: qHTS Assay for Lipid Storage Modulators in Drosophila S3 Cells;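 for cell number change: cells counted by Cell Tracker Red CMTPX staining in the red channel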
Settings: BODIPY lipid droplet fluorescence, 18-24 h; for cell number change: measured here: cell count max response, cells fed with added oleic acid
Procedure, shortened: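 Laser-scanning cytometry quantifies lipid droplet accumulation (500–530 nm total intensity; droplet/cell object ratio) in oleic acid-fed (400 uM added) Drosophila S3 cells treated with a concentration series. 20 uM Triacsin C defined 100% inhibition.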

[1] = measured here: cell number channel AC50, cells fed with added oleic acid
[2] = measured here: lipid fluorescence (Fed channel) AC50, cells fed with added oleic acid

In the case of `Cc1ccc(NC(N)=S)cc1`, the cell number change is reported as 44.6%, the AC50 [1] is reported as 29.1 µM [rising, single point] and the AC50 [2] is reported as 29.1 µM [rising, single point].
With `COc1ccc(-c2noc(-c3ccc(C)cc3)n2)cc1` the cell number change was 31.7%, the AC50 [1] was 2.91 µM [rising, full curve, poor fit] and the AC50 [2] was 11.6 µM [rising, partial curve].
In the case of `O=C(COC(=O)c1sc2ccccc2c1Cl)Nc1ncc(Cl)cc1Cl`, the cell number change is reported as -8.04%.
For `O=C(COC(=O)/C=C/c1ccc(Cl)cc1)NCCc1ccccc1`, the cell number change was -6.11% and the AC50 [2] was 29.1 µM [falling, partial curve, poor fit].
For `Cc1ccc(-n2nc3c(=O)n(CCCC(=O)N4CCC(C(N)=O)CC4)nc(C)c3c2C)cc1`, the cell number change was 1.48% and the AC50 [2] was 18.4 µM [rising, partial curve].
In the case of `Cn1c(SCc2ccccc2)nnc1-c1ccc(O)cc1`, the cell number change is reported as -12.6% and the AC50 [2] is reported as 0.58 µM [falling, single point].
For `O=C1C(Nc2ccccc2)=C(NS(=O)(=O)c2ccccc2)C(=O)c2ccccc21`, the cell number change was -23.2%, the AC50 [1] was 2.06 µM [rising, partial curve] and the AC50 [2] was 2.06 µM [rising, partial curve].
For `CC1(C)CC(=NOC(=O)c2ccccc2)CC(C)(C)N1`, the cell number change was -0.259%, the AC50 [1] was 6.51 µM [falling, single point] and the AC50 [2] was 6.51 µM [falling, single point].
For `CCOc1ccc(NC(=O)CN(C)C(=O)Cc2n[nH]c(=O)c3ccccc23)cc1OCC`, the cell number change was -29.5% and the AC50 [2] was 29.1 µM [falling, single point].
For `CCOC(=O)c1cccc(NC(=O)CCS(=O)(=O)c2cccc3nsnc23)c1`, the cell number change was 12.6% and the AC50 [2] was 4.11 µM [rising, partial curve].
In the case of `COc1ccc(C(C(=O)NCc2ccc(F)cc2)N(Cc2cccnc2)C(=O)c2snc(C(N)=O)c2N)cc1` (centres undefined), the cell number change is reported as 34.6% and the AC50 [2] is reported as 0.517 µM [rising, partial curve].
With `O=C(c1cccc(OC2CCN(Cc3cccc(OCCO)c3)CC2)c1)N1CCCC1` the cell number change was 25.5% and the AC50 [2] was 16.4 µM [rising, single point].
For `CCN(CC(=O)Nc1ccc(OC)cc1)C(=O)Cc1coc2cc(C)c(C)cc12`, the cell number change was 2.02% and the AC50 [2] was 29.1 µM [falling, partial curve, poor fit].
With `COc1cc(NC(=O)CCN2CCN(C/C=C/c3ccccc3)CC2)cc(OC)c1` the cell number change was -18.8%.
For `Cc1cc(-c2n[nH]c(=S)n2-c2ccccc2C)cs1`, the cell number change was 3.06% and the AC50 [2] was 2.59 µM [rising, partial curve].
For `CCC(=O)N1CCN(c2cc(C)ccc2C)CC1`, the cell number change was 33.1% and the AC50 [1] was 18.4 µM [rising, single point].
